Data taken from PubChem BioAssay AID912, deposited by NCATS (2007).

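Uptake of anthrax lethal toxin into cultured cells, read by FRET (460/530 nm ratio) and reported from the 460 nm channel; the cell line is not named here.
Each compound was tested as a concentration series from about 0.0005 to 40 µM.
The number is the fitted AC50 of the 460 nm signal alone; lower values mean a more potent effect. A falling signal goes with compounds filed as inhibitors or cytotoxic, a rising one with activators or fluorescent compounds (inferred from the filed classes).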

Values are in µM.
Common to all entries: measured here: 460 nm channel.
This is a side read-out of the assay, for part of the compounds, not drawn at random.
Potencies fitted to partial, single-point or poorly fitting curves are rough.
The first word of each remark tells which way the curve ran; it can be opposite to the aim of the assay.

compound	AC50 (µM)	remark
Cc1cc(NC(=O)Nc2ccc(N(C)C)cc2)c2cc(F)cc(F)c2n1	12.59	falling, full curve
CCOC(=O)CNc1c(-c2ccc(F)cc2)nc2cnccn12	12.59	rising, single point
c1ccn2c(c1)nc1c2nc2ccccn21	31.62	rising, single point
CC(C)(C)OC(=O)NCCc1nnc(S(=O)(=O)Cc2ccc(Cl)cc2Cl)o1	15.85	falling, partial curve
COc1cc(OC)cc(C(=O)NC2CC3CCC(C2)N3Cc2ccco2)c1 (stereo unspecified)	5.012	rising, partial curve
COc1ccccc1N1CCN(CC(=O)Nc2c(C)n[nH]c2C)CC1	0.05012	falling, full curve, poor fit
O=C(Nc1ccc(Br)cc1F)c1ccc2c(c1)N(Cc1ccccc1)C(=O)CS2=O (stereo unspecified)	0.2512	falling, full curve, poor fit
CCNCC1(c2ccc(OC)c(OC)c2)CCCC1	31.62	rising, single point
CNS(=O)(=O)c1cccc(C(=O)OC2CCCCC2=O)c1 (stereo unspecified)	0.1	rising, full curve, poor fit
Cn1cc(CN2CCN(c3ccccc3)CC2)c2ccccc21	5.012	rising, single point
COC(=O)[C@@]1(Cc2ccc(OC)cc2)[C@H]2c3cc(C(=O)N4CCCC4)n(CCCNc4ncc(C(F)(F)F)cc4Cl)c3C[C@H]2CN1C(=O)c1ccccc1	31.62	falling, single point
COc1ccc(N=c2oc3cc(O)ccc3cc2C(=O)NCC2CCCO2)c(OC)c1 (stereo unspecified)	12.59	rising, partial curve
Cc1ccc2c(c1)c1cccc3c1n2CCN3CCC(N)=O	10	rising, partial curve
Cc1cc(NCCCN2CCOCC2)n2nc(C)c(-c3ccc(F)cc3)c2n1	31.62	falling, single point
Nc1ccc(N=Nc2c(S(=O)(=O)O)cc3ccccc3c2S(=O)(=O)O)cc1	1	rising, single point
COc1ccc(CN(C2CCCC2)S(=O)(=O)c2ccc(-n3cnnn3)cc2)cc1	15.85	falling, single point
Cc1ccccc1Cn1c(CN2CCc3ccccc3C2)nc2c1c(=O)n(C)c(=O)n2C	15.85	rising, partial curve
COc1ccccc1CNc1nc(-c2ccccc2OC)nc2ccccc12	25.12	falling, single point
CCCCCC(N)=O	0.000631	falling, full curve, poor fit
CC(=O)c1cccc(-n2nnnc2SCC(=O)Nc2ccccc2N2CCCCC2)c1	6.31	falling, partial curve, poor fit
COC(=O)C1=C(C)N(Cc2ccco2)C(=O)C1	0.1	falling, full curve, poor fit
COc1cccc(-c2cncnc2NCc2ccccc2)c1	5.012	falling, single point
COc1cc(N=c2ssnc2Cl)cc(OC)c1OC	31.62	falling, single point
C=CCn1c(=O)c2ccccc2n2c(SCc3csc(-c4ccccc4)n3)nnc12	25.12	rising, single point
COc1ccc2[nH]c3c(NCCN4CCCCC4)ncnc3c2c1	3.981	falling, full curve, poor fit
O=C(NCc1cccs1)C1CCN(c2ccc(S(=O)(=O)N3CCOCC3)cc2Cl)CC1	10	falling, partial curve
COc1cccc(OCC(O)CN2C(C)CCCC2C)c1 (stereo unspecified)	3.162	rising, single point
COCCn1c(C(=O)N2CCCC2)cc2c1C[C@H]1CN(C(=O)c3ccccc3)[C@@](Cc3ccccc3)(C(=O)OC)[C@@H]21	31.62	rising, single point
CC(=O)c1ccc(N2CCN(C(=O)c3cc4c(-c5ccccc5F)nn(C)c4s3)CC2)cc1	12.59	falling, partial curve
CCCCOC(=O)C1=C(C)NC2=C(C(=O)CCC2)C1c1cc(OC)ccc1OC (stereo unspecified)	10	rising, single point
COC(=O)[C@@]1(Cc2ccc(F)cc2)[C@H]2c3cc(C(=O)N4CCCC4)n(Cc4ccc(Cl)c(C(F)(F)F)c4)c3C[C@H]2CN1C(=O)c1ccccc1	0.03162	rising, full curve
N#CC1=C2SCN(c3ccccc3)CN2C(=O)CC1c1ccccc1Cl (stereo unspecified)	10	falling, partial curve
CCC1S/C(=C(\C#N)C(=O)NCc2ccco2)N(c2ccc(F)cc2)C1=O (stereo unspecified)	31.62	rising, single point
CN(C)Cc1ccccc1-c1cc(N(C)Cc2ccco2)ncn1	12.59	falling, partial curve
CCn1nc(NC(=O)c2ccncc2)c2cc3cc(C)ccc3nc21	5.012	rising, single point

The last 3 entries again:

* CCC1S/C(=C(\C#N)C(=O)NCc2ccco2)N(c2ccc(F)cc2)C1=O (stereo unspecified) | AC50 31.62 µM (rising, single point)
* CN(C)Cc1ccccc1-c1cc(N(C)Cc2ccco2)ncn1 | AC50 12.59 µM (falling, partial curve)
* CCn1nc(NC(=O)c2ccncc2)c2cc3cc(C)ccc3nc21 | AC50 5.012 µM (rising, single point)